From patent publication US9920010B2, “CXCR7 receptor modulators” (IDORSIA PHARMACEUTICALS LTD, priority 2013, dated 2018) come the findings set out here.

Sequences of proteins named here, by UniProt entry; tags and fusion partners are left off.
UniProt P25106, whole entry: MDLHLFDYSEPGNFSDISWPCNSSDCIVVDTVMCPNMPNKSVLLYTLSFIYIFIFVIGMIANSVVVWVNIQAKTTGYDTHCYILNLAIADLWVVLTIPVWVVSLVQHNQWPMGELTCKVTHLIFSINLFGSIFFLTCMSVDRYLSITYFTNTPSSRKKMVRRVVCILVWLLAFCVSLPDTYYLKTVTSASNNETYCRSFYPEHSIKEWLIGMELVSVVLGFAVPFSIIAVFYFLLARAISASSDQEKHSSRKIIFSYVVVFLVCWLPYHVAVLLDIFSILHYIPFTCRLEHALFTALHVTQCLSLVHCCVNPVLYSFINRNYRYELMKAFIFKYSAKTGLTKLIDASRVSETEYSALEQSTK
UniProt P32121, whole entry partner: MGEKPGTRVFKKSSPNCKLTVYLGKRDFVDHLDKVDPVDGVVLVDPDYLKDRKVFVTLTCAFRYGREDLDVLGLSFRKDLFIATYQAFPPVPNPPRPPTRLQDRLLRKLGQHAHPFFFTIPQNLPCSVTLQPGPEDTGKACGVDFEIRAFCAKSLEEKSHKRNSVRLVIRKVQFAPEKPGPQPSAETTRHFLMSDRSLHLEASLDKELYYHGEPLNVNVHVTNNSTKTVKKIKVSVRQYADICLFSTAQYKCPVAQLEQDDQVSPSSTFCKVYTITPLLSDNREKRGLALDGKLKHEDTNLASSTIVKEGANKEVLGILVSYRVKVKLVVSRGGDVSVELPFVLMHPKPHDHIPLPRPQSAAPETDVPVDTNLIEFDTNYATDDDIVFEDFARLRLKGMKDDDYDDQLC

The target of this assay is CXCR7 (Homo sapiens, UniProt P25106). The experiment in a line: PathHunter CHO-K1 CXCR7 b-arrestin recruitment assay (CXCR7 agonistic activity). The note with it: read-out: CXCR7 EC50, PathHunter CHO-K1 CXCR7 b-arrestin cell line. How it is done:
The CXCl12 receptor and CXCR7 agonistic activities of the compounds of formula (I) are determined in accordance with the following experimental method.
The assay is using the PathHunter™ CHO-K1 CXCR7 b-arrestin cell line from DiscoverX. The system is based on the Enzyme Fragment Complementation Technology. Two complementing fragments of the b-galactosidase enzyme are expressed within stably transfected cells. The larger portion of b-gal, termed EA for Enzyme Acceptor, is fused to the C-terminus of b-arrestin 2. The smaller fragment, termed ProLink™ tag, is fused to CXCR7 at the C-terminus. Upon activation, b-arrestin is recruited which forces the interaction of ProLink and EA, allowing complementation of the two fragments of b-gal and the formation of a functional enzyme which is capable of hydrolysing the substrate and generating a chemiluminescent signal.
CHO-K1 CXCR7 b-arrestin cells are detached from culture dishes with a cell dissociation buffer (Invitrogen, #13151-014) and collected in growing medium (F12 HAMS 90% (v/v)/FCS 10% (v/v), Penicillin/streptomycin 1% (v/v)). 5000 cells per well (in 20 μl) are seeded in a 384 well plate (white-walled, clear bottom; BD Falcon #353274). […] Luminescent signal is read in a microplate reader (FLUOstar Optima, bmg). The calculated EC50 values may fluctuate depending on the daily cellular assay performance. […]

The structures appear in SMILES notation. The structures given here were assigned with low confidence; some may be wrong.

As a reminder, the EC50 is the midpoint of the concentration-response curve. Consider `CN(CCN(Cc1ccccc1C(F)(F)F)C(=O)CNc1cccc2c1CN(CC1CC1)CC2)C1CC1`, for which the EC50 turned out to be 15 nM.
The same measure for `CN(C)CCN(Cc1ccccc1C(F)(F)F)C(=O)CNc1cccc2c1CN(CC1CC1)CC2` [compound 475]: 5 nM.
